Data source: PubChem BioAssay AID1259424 (University of Nebraska Medical Center, 2018)

Assay: 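Find knockdowns that reproduce the expression shifts seen after KSR1 loss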 (primary screen)
Cells: human HCT116 colon cancer cells
Reagent: siRNA pool against human genes, 50 nM
Measurement: 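Six signature mRNAs by branched-DNA multiplex assay, scaled to two housekeeping genes and non-targeting median, log2; matched to mean KSR1 knockdown profile by Pearson correlation and euclidean distance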
Scale: mean correlation with KSR1 profile and KSR1 correlation: higher = expression change more like KSR1 knockdown; mean distance from KSR1 profile: higher = expression change less like KSR1 knockdown
Here is one part, drawn at random, of about 14,000 deposited reagents. 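Higher correlation or smaller distance means closer resemblance to KSR1 loss; control wells, including KSR1 knockdowns, recur on many plates.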 The record does not give: the time to read-out.

gene	mean correlation with KSR1 profile	mean distance from KSR1 profile	KSR1 correlation, replicate 1	KSR1 correlation, replicate 2	KSR1 correlation, replicate 3
RWDD1	0.0948	1.72	0.0792	0.00553	0.182
ZNF611	0.175	2.26	0.127	0.178	-0.148
CSNK1G2	0.0126	2.73	0.0395	-0.124	-0.0454
MED13	-0.353	1.64	-0.344	-0.163	-0.681
NAGLU	0.0857	1.24	0.0451	0.00306	0.0774
NICN1	0.614	1.49	0.525	0.481	0.591
IDH1	0.201	1.65	0.289	0.124	0.172
ASCL1	0.897	1.34	0.89	0.862	0.825
YWHAZ	0.518	0.994	0.696	0.666	-0.0237
HOXC11	0.736	0.814	0.805	0.621	0.697
GRIK4	-0.439	3.7	-0.461	-0.426	-0.568
DRG2	0.122	1.69	0.409	-0.0437	0.27
USP32	0.374	2.44	-0.0108	0.137	0.634
PCK2	0.18	1.77	0.337	0.467	-0.164
ATRN	-0.121	2.11	-0.013	-0.174	-0.0618
EI24	-0.328	1.59	-0.371	-0.214	-0.374
RSF1	0.427	1.13	0.289	0.481	0.49
SESN2	0.106	2.38	0.0615	0.029	0.0757
CYP4F8	-0.266	1.78	-0.149	-0.375	-0.165
GTSE1	-0.251	1.85	-0.107	-0.39	-0.309
CRISP2	-0.568	2.66	-0.429	-0.799	-0.371
ZRSR2P1	-0.0648	1.82	-0.00481	0.0405	-0.137
RHOB	0.544	1.12	0.734	0.256	0.493
RARA	-0.544	3.11	-0.484	-0.608	-0.589
GDF10	0.111	1.3	-0.355	0.202	0.209
FRMPD3	0.793	1.05	0.899	0.87	0.0765
PDE8B	-0.841	2.82	-0.707	-0.816	-0.835
GARRE1	0.0733	4.16	0.169	0.0197	0.181
UCHL5	-0.295	1.36	-0.0787	-0.554	-0.354
PRMT2IP	-0.174	4	-0.182	-0.113	-0.151
CEP70	0.775	1.41	0.307	0.803	0.577
IST1	-0.316	2.23	-0.257	-0.294	-0.095
LENEP	-0.148	3.82	-0.0166	-0.278	-0.102
LIPC	0.676	1.66	0.453	0.704	0.679
MCOLN3	0.477	0.932	0.533	0.393	0.461
DMWD	0.841	1.35	0.805	0.811	0.839
PRRC2C	0.315	2.91	0.44	0.233	0.0536
MARCHF8	-0.443	2.43	-0.584	-0.249	-0.384
PLCD1	-0.467	1.23	0.0643	-0.593	-0.715
CYP11B2	0.61	1.13	0.579	0.449	0.618
CDC123	-0.416	3.35	-0.442	-0.513	-0.418
LMBR1L	0.0891	1.42	0.111	-0.00228	0.0623
TNS4	0.568	2.52	0.59	0.304	0.374
POLQ	0.451	1.99	0.555	0.415	0.399
UTP20	0.339	1.27	0.463	0.213	0.244
NPC1	0.358	1.48	0.342	0.324	0.28
ADGRG2	0.696	2.85	0.706	0.712	0.613
MED24	0.37	3.09	0.441	0.443	0.143
SUCLG1	0.449	3.93	0.426	0.428	0.278
CHGA	-0.198	2.24	-0.145	0.0369	-0.336

Laid out differently: entries from further up
gene | mean correlation with KSR1 profile | mean distance from KSR1 profile | KSR1 correlation, replicate 1 | KSR1 correlation, replicate 2 | KSR1 correlation, replicate 3
GTSE1 | -0.251 | 1.85 | -0.107 | -0.39 | -0.309
CRISP2 | -0.568 | 2.66 | -0.429 | -0.799 | -0.371
ZRSR2P1 | -0.0648 | 1.82 | -0.00481 | 0.0405 | -0.137
RHOB | 0.544 | 1.12 | 0.734 | 0.256 | 0.493
RARA | -0.544 | 3.11 | -0.484 | -0.608 | -0.589
